Reference: patent publication US20120052070A1 (Novartis, published 2012)
No constants are given. Whether binding was seen depends on the method and setting. A result given as binding can be weak or reduced; the word gives no strength.

Target: rat DKK1 (rat)
Assay: solution equilibrium titration (SET)

B1: anti-DKK1/4 antibody (antibody, V domains shown)
VH: QVQLVESGGGLVQPGGSLRLSCAASGFTFSSYWMSWVRQAPGKGLEWVSGISYSGSNTHYADSVKGRFTISRDNSKNTLYLQMNSLRAEDTAVYYCARMGIDLDYWGQGTLVTVSS
VL: DIALTQPASVSGSPGQSITISCTGTSSDVGGFNYVSWYQQHPGKAPKLMIHDGSNRPSGVSNRFSGSKSGNTASLTISGLQAEDEADYYCQSWDVSPITAVFGGGTKLTVLG
**Q.** For B1, which binding is on record?
**A.** The binding was “binds”.
